Assay results from US20100317671A1, “XANTHINE-BASED CYCLIC GMP-ENHANCING RHO-KINASE INHIBITOR INHIBITS PHYSIOLOGICAL ACTIVITIES OF LUNG EPITHELIAL CELL LINE” (KAOHSIUNG MEDICAL UNIVERSITY, priority 2008, published 2010).
For at least one compound, name, drawing or mass did not settle the structure.

Assay: Monocrotaline (MCT)-induced pulmonary arterial hypertension, PABP
Format: in vivo, male Wistar rats
Details: MCT-treated rats; 2.5 mg/kg orally every day
Method: The rats administered MCT (60 mg/kg) are caused pulmonary artery hypertension on day 21 after the intraperitoneal injection. The KMUP-1HCl salt (2.5 mg/kg), Simvastatin (2.5 mg/kg), KMUP-1-nicotinic acid complex (2.5 mg/kg), KMUP-1-citric acid complex (2.5 mg/kg), KMUP-1-Simvastatinic Acid complex (2.5 mg/kg) and KMUP-1-γ-polyglutamic acid complex (2.5 mg/kg) orally administered, or the KMUP-1-PGI2 complex (0.1 mM) inhaled every day may inhibit the pulmonary arterial blood pressure (PABP) in MCT-treated male Wistar rats.

Compound: CCC(C)(C)C(=O)O[C@H]1C[C@@H](C)C=C2C=C[C@H](C)[C@H](CC[C@@H]3C[C@@H](O)CC(=O)O3)[C@H]21 [Simvastatin, reference compound]
- Pulmonary arterial blood pressure (PABP), in words: inhibit
